In patent US7666882B2, “Anthranilamide insecticides” (E.I. du Pont de Nemours and Company, priority 2002, dated 2010):
Some entries share one result that the patent states for a list of compounds.

Tests used:
[1] = test system: diamondback moth (Plutella xylostella); assay: Test A: control of diamondback moth on radish plant, foliar spray; type: in vivo; conditions: sprayed at 50 ppm, neonate larvae, 6 days, 25° C.
[2] = test system: fall armyworm (Spodoptera frugiperda); assay: Test B: control of fall armyworm on corn (maize) plant, foliar spray; type: in vivo; conditions: sprayed at 50 ppm, 1-day-old larvae, 6 days

C#CCOc1cc(C(=O)Nc2c(Cl)cc(Cl)cc2C(=O)NC(C)C)n(-c2ncccc2Cl)n1 [Compound 8, 1-(3-Chloro-2-pyridinyl)-N-[2,4-dichloro-6-[[(1-methylethyl)amino]carbonyl]phenyl]-3-(2-propynyloxy)-1H-pyrazole-5-carboxamide] was tested, and the “feeding damage (plant protection, visually assessed on foliage consumed)” value [1] was ≤ 20% and the “feeding damage (plant protection, visually rated)” value [2] was ≤ 20%.
